From publication PMC5380967
These are yes or no findings as the source states them, for the method shown. Binding seen in cells or lysates may run through a third protein. Here binding means that the protein was enriched with, or labelled near, the bait; the list need not be complete. For part of these data: Tags and fused reporters may be left off the sequences shown.

The chains behind the UniProt entries cited, without tags or fusion partners.
UniProt Q93008: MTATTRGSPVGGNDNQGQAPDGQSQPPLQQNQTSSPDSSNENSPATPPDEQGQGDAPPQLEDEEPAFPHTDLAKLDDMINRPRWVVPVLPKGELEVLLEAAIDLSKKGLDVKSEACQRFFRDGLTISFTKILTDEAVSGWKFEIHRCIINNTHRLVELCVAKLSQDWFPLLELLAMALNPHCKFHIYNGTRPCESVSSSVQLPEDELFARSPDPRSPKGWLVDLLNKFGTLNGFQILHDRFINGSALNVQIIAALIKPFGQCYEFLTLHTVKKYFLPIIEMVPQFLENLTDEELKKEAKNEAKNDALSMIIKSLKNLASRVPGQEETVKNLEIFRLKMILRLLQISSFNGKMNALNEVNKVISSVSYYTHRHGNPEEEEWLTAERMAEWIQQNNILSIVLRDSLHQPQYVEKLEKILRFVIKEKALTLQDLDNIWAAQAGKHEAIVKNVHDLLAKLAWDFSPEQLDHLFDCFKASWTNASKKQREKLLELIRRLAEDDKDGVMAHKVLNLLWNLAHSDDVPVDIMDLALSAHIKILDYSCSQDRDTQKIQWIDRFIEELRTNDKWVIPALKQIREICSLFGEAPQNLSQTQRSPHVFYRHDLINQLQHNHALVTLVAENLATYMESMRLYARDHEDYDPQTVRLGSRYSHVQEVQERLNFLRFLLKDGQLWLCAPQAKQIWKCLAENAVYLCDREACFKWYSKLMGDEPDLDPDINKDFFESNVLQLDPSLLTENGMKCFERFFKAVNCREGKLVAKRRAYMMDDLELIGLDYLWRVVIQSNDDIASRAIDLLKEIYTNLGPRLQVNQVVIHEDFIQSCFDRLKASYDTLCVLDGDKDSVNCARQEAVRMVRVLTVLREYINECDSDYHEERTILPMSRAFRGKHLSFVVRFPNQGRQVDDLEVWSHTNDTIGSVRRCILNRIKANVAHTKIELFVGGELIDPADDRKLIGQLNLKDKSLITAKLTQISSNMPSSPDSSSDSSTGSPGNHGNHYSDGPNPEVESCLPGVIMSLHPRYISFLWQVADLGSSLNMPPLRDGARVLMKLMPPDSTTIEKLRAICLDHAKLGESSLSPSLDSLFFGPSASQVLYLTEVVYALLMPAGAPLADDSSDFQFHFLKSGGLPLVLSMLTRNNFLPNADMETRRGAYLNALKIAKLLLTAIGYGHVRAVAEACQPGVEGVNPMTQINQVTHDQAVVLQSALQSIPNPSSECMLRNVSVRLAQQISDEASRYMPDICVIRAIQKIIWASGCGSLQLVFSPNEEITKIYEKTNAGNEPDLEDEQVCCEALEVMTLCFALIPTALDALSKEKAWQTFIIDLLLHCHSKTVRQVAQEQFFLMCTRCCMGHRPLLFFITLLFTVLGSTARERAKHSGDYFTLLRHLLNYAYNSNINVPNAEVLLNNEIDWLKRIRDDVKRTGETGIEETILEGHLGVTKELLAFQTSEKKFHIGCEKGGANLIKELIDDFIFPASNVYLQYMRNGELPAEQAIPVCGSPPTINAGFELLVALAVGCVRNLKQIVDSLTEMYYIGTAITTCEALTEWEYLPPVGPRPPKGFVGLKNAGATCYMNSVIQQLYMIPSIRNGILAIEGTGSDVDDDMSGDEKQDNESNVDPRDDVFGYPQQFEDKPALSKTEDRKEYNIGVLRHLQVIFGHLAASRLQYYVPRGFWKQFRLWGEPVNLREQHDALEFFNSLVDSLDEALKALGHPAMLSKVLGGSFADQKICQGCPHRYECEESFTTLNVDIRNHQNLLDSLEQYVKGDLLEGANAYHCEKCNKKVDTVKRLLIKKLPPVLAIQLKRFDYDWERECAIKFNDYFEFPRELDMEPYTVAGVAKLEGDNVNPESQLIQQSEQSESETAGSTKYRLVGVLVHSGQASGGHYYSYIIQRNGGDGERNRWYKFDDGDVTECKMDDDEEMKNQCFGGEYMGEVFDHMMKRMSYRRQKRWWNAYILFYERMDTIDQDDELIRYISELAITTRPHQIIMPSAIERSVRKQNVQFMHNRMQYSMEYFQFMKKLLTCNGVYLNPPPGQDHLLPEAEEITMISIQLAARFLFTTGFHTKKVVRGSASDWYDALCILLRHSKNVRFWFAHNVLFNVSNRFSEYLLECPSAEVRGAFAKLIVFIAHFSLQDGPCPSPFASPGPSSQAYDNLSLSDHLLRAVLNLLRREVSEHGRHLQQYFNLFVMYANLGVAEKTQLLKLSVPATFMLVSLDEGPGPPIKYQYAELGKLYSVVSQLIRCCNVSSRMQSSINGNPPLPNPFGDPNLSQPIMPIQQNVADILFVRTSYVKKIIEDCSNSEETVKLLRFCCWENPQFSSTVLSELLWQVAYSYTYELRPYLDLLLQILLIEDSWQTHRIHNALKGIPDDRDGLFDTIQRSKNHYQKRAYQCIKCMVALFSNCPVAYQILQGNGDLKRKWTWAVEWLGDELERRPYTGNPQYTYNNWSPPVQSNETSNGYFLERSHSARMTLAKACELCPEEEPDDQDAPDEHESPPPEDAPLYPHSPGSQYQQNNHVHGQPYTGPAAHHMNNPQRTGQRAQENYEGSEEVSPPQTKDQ
UniProt Q15154: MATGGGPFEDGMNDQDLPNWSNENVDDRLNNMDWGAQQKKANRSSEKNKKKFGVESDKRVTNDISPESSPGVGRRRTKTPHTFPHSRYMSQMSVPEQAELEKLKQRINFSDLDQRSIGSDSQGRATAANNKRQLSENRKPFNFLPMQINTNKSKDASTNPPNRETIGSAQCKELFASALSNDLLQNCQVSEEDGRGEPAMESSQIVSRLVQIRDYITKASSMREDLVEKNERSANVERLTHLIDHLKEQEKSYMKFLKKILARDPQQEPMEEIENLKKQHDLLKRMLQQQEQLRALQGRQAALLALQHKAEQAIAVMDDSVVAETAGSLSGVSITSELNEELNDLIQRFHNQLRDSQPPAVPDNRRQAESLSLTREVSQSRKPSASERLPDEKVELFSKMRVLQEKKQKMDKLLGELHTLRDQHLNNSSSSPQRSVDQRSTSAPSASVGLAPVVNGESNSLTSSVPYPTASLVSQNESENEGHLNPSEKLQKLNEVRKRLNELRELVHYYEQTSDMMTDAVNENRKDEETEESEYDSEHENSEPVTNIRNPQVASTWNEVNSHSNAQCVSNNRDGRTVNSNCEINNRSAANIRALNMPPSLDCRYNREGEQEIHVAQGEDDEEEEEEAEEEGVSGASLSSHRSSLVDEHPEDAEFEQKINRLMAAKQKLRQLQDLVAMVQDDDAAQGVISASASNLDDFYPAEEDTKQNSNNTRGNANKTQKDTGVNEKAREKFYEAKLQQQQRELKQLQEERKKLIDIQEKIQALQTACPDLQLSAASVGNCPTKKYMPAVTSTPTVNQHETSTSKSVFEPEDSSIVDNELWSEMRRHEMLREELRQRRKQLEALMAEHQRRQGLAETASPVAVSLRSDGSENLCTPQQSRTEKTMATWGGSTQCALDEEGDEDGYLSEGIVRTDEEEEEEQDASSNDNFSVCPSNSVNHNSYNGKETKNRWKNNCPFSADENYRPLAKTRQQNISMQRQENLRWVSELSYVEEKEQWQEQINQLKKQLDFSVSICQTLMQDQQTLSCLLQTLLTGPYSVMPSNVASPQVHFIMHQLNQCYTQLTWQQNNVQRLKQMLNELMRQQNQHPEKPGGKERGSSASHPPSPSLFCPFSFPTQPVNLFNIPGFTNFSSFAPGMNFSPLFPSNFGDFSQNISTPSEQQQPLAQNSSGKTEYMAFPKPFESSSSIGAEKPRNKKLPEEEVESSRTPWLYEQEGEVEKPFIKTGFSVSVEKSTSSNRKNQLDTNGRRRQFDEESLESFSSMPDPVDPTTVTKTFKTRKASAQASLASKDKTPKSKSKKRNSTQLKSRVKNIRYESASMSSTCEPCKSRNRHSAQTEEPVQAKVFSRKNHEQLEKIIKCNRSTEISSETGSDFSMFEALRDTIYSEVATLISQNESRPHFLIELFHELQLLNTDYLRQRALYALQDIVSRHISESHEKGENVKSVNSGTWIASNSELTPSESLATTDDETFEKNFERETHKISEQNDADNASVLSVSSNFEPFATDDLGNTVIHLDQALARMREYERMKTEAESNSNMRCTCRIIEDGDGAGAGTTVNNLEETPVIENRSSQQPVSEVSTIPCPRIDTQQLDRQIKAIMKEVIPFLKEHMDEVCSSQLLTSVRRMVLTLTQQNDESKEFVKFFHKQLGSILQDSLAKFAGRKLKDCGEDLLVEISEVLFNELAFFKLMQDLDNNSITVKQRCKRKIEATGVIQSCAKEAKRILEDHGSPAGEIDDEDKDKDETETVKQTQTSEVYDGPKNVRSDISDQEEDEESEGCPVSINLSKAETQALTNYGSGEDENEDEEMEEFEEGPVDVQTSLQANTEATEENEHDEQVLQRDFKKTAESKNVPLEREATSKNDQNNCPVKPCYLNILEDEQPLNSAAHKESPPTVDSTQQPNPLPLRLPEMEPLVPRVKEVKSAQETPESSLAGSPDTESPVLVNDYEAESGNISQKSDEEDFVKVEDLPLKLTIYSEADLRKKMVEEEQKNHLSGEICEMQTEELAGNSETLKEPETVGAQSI

T1: FLAG-CEP131 (human) (UniProt Q9UPN4)
T1 sequence: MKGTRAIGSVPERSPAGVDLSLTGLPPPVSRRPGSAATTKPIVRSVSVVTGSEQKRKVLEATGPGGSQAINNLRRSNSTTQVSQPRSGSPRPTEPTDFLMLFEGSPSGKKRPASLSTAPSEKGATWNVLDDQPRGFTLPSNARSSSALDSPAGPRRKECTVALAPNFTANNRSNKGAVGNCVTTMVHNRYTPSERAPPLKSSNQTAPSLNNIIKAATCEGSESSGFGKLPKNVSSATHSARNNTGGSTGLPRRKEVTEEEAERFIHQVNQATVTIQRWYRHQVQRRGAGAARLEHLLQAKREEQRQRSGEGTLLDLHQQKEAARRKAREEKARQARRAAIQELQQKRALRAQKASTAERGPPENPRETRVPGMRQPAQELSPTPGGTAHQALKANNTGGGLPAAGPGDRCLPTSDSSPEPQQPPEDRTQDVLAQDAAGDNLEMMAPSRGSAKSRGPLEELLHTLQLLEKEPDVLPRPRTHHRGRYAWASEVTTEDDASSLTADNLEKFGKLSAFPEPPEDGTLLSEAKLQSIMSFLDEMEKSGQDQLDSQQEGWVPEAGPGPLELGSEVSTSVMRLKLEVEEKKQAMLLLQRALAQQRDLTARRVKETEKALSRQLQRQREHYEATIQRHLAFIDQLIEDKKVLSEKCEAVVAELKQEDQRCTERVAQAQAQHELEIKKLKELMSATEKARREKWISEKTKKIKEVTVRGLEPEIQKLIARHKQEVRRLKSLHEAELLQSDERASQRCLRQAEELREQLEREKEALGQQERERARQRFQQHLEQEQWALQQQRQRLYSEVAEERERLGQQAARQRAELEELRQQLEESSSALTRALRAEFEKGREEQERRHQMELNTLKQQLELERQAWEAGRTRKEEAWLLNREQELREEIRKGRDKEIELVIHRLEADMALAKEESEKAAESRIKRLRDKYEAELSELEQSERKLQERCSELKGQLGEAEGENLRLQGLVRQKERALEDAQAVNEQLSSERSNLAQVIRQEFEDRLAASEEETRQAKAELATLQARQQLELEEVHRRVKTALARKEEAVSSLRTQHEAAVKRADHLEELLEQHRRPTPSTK


How the values were obtained:
[1] = target: T1, FLAG-CEP131 (human); assay: affinity purification with mass spectrometry; whole-cell extracts of HeLa cells with Dox-inducible, stably integrated FLAG-tagged bait on an anti-FLAG M2 column; washed with cold PBS plus 0.2% Nonidet P-40; eluted with FLAG peptide; bands of a silver-stained gel analysed by LC-MS/MS
[2] = target: FLAG-USP9X (human) (UniProt Q93008); assay: as above

binding [1] | binding [2] | Molecule
binds | – | PCM1 (pericentriolar material 1), endogenous (from UniProt Q15154 1-2024)
binds | – | ubiquitin-specific peptidase 9, X-linked (USP9X), endogenous (from UniProt Q93008 1-2554) (enzyme)
– | binds | CEP131, centriolar satellite protein, endogenous (protein, UniProt Q9UPN4 1-1083) MKGTRAIGSVPERSPAGVDLSLTGLPPPVSRRPGSAATTKPIVRSVSVVTGSEQKRKVLEATGPGGSQAINNLRRSNSTTQVSQPRSGSPRPTEPTDFLMLFEGSPSGKKRPASLSTAPSEKGATWNVLDDQPRGFTLPSNARSSSALDSPAGPRRKECTVALAPNFTANNRSNKGAVGNCVTTMVHNRYTPSERAPPLKSSNQTAPSLNNIIKAATCEGSESSGFGKLPKNVSSATHSARNNTGGSTGLPRRKEVTEEEAERFIHQVNQATVTIQRWYRHQVQRRGAGAARLEHLLQAKREEQRQRSGEGTLLDLHQQKEAARRKAREEKARQARRAAIQELQQKRALRAQKASTAERGPPENPRETRVPGMRQPAQELSPTPGGTAHQALKANNTGGGLPAAGPGDRCLPTSDSSPEPQQPPEDRTQDVLAQDAAGDNLEMMAPSRGSAKSRGPLEELLHTLQLLEKEPDVLPRPRTHHRGRYAWASEVTTEDDASSLTADNLEKFGKLSAFPEPPEDGTLLSEAKLQSIMSFLDEMEKSGQDQLDSQQEGWVPEAGPGPLELGSEVSTSVMRLKLEVEEKKQAMLLLQRALAQQRDLTARRVKETEKALSRQLQRQREHYEATIQRHLAFIDQLIEDKKVLSEKCEAVVAELKQEDQRCTERVAQAQAQHELEIKKLKELMSATEKARREKWISEKTKKIKEVTVRGLEPEIQKLIARHKQEVRRLKSLHEAELLQSDERASQRCLRQAEELREQLEREKEALGQQERERARQRFQQHLEQEQWALQQQRQRLYSEVAEERERLGQQAARQRAELEELRQQLEESSSALTRALRAEFEKGREEQERRHQMELNTLKQQLELERQAWEAGRTRKEEAWLLNREQELREEIRKGRDKEIELVIHRLEADMALAKEESEKAAESRIKRLRDKYEAELSELEQSERKLQERCSELKGQLGEAEGENLRLQGLVRQKERALEDAQAVNEQLSSERSNLAQVIRQEFEDRLAASEEETRQAKAELATLQARQQLELEEVHRRVKTALARKEEAVSSLRTQHEAAVKRADHLEELLEQHRRPTPSTK
